Source: patent US20040137592A1, “Novel SMG-1” (Japan Science and Technology Agency, priority 2001, published 2004)
At least one structure is not confirmed: it was looked up by name or label, or the drawing left a doubt.

Test system: hUpf1/SMG-2 phosphorylation in HeLa cells
Type: cell-based, human
Settings: 30 min pretreatment, then 4.5 hours with 50 nmol/L okadaic acid, FIG. 28
Procedure: HeLa cells were pretreated for 30 minutes in the presence or absence of various concentrations of wortmannin, caffeine, or rapamycin shown in FIG. 28. Next, the cells were treated for 4.5 hours in the presence of wortmannin, caffeine, or rapamycin and in the presence or absence of 50 nmol/L okadaic acid. Cell lysates were prepared and analyzed by Western blotting using the anti-Upf1/SMG-2 antibody.
Further, “hUPF1-P” means phosphorylated hUpf1/SMG-2, while “hUPF1” means unphosphorylated hUpf1/SMG-2.

Structure (SMILES) | inhibition of the upward shift of hUpf1/SMG-2
CO[C@H]1C[C@@H]2CC[C@@H](C)[C@@](O)(O2)C(=O)C(=O)N2CCCC[C@H]2C(=O)O[C@H]([C@H](C)C[C@@H]2CC[C@@H](O)[C@H](OC)C2)CC(=O)[C@H](C)/C=C(\C)[C@@H](O)[C@@H](OC)C(=O)[C@H](C)C[C@H](C)/C=C/C=C/C=C/1C [rapamycin] | did not
COC[C@H]1OC(=O)c2coc3c2[C@@]1(C)C1=C(C3=O)[C@@H]2CCC(=O)[C@@]2(C)C[C@H]1OC(C)=O [wortmannin] | inhibited the upward shift
